At least one structure is not confirmed: it was looked up by name or label, or the drawing left a doubt.
Tested on: MEC1 cells expressing C/EBPβ
Test: Adipogenic differentiation of MEC1 cells virally expressing C/EBPβ
Assay type: cell-based, mouse
Details: after rosiglitazone addition

CN(CCOc1ccc(CC2SC(=O)NC2=O)cc1)c1ccccn1 (stereo not shown) [rosiglitazone]
adipogenic differentiation: adipogenic differentiation

— patent US20140154728A1, “COMPOSITIONS, SYSTEMS AND METHODS BASED ON THE DIFFERENTIATION OF EPICARDIAL CELLS TO TYPICAL AND ATYPICAL FATES” (UNIVERSITY OF SOUTHERN CALIFORNIA, priority 2012, published 2014)
